Data as given in patent publication US11976080B1, “Benzofuro[3,2-c]chromen-6-one compounds as antibacterial agents” (King Faisal University, priority 2023, dated 2024).
≈ marks a conversion by molar mass, not a printed value.

Experiments:
Assay in all cases: In vitro antibacterial activity (CLSI dilution MIC)
Format in all cases: cell-based
[1] = system: Escherichia coli MTCC 443; details: MTCC443
[2] = system: Staphylococcus aureus ATCC BAA-1556 (MERSA resistant); details: ATCCBAA1556
[3] = system: Enterococcus faecium ATCC 51559 (VRE resistant)
[4] = system: Enterococcus faecium ATCC 35667; details: ATCC35667
[5] = system: Staphylococcus aureus ATCC 29213; details: ATCC29213
[6] = system: Staphylococcus epidermidis

## CN[C@H](CC(C)C)C(=O)N[C@H]1C(=O)N[C@@H](CC(N)=O)C(=O)N[C@H]2C(=O)N[C@H]3C(=O)N[C@H](C(=O)N[C@H](C(=O)O)c4cc(O)cc(O)c4-c4cc3ccc4O)[C@H](O)c3ccc(c(Cl)c3)Oc3cc2cc(c3O[C@@H]2O[C@H](CO)[C@@H](O)[C@H](O)[C@H]2O[C@H]2C[C@](C)(N)[C@H](O)[C@H](C)O2)Oc2ccc(cc2Cl)[C@H]1O [Vancomycin, reference compound]
[1]
  MIC: > 128 µg/mL
[2]
  MIC: 1 µg/mL (≈ 0.69 µM)
[3]
  MIC: > 128 µg/mL
[4]
  MIC: 0.5 µg/mL (≈ 0.345 µM)
[5]
  MIC: 1 µg/mL (≈ 0.69 µM)
[6]
  MIC: 1 µg/mL (≈ 0.69 µM)
